Drawing on PMC6778137, “The midbody interactome reveals unexpected roles for PP1 phosphatases in cytokinesis” (Nature Communications, 2019), this text covers binding for four molecules.

Amino acid sequences for entries named in this document (tags omitted).
UniProt O43663: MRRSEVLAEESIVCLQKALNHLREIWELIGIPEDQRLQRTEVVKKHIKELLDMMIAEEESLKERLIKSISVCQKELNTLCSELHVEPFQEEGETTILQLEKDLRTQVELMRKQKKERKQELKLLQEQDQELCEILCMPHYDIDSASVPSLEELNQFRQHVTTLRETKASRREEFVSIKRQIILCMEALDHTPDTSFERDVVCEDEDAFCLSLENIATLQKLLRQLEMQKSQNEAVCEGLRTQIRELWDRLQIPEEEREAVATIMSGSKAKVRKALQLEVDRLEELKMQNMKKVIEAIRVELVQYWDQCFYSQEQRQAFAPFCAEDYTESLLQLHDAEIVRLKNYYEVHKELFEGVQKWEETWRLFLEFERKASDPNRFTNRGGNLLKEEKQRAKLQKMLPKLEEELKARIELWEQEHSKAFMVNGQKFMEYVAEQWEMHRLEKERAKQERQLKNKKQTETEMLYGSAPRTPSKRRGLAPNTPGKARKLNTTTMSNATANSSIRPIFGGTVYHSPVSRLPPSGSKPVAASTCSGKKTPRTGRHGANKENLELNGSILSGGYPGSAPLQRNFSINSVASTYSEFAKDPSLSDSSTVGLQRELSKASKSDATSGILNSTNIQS
UniProt O14578: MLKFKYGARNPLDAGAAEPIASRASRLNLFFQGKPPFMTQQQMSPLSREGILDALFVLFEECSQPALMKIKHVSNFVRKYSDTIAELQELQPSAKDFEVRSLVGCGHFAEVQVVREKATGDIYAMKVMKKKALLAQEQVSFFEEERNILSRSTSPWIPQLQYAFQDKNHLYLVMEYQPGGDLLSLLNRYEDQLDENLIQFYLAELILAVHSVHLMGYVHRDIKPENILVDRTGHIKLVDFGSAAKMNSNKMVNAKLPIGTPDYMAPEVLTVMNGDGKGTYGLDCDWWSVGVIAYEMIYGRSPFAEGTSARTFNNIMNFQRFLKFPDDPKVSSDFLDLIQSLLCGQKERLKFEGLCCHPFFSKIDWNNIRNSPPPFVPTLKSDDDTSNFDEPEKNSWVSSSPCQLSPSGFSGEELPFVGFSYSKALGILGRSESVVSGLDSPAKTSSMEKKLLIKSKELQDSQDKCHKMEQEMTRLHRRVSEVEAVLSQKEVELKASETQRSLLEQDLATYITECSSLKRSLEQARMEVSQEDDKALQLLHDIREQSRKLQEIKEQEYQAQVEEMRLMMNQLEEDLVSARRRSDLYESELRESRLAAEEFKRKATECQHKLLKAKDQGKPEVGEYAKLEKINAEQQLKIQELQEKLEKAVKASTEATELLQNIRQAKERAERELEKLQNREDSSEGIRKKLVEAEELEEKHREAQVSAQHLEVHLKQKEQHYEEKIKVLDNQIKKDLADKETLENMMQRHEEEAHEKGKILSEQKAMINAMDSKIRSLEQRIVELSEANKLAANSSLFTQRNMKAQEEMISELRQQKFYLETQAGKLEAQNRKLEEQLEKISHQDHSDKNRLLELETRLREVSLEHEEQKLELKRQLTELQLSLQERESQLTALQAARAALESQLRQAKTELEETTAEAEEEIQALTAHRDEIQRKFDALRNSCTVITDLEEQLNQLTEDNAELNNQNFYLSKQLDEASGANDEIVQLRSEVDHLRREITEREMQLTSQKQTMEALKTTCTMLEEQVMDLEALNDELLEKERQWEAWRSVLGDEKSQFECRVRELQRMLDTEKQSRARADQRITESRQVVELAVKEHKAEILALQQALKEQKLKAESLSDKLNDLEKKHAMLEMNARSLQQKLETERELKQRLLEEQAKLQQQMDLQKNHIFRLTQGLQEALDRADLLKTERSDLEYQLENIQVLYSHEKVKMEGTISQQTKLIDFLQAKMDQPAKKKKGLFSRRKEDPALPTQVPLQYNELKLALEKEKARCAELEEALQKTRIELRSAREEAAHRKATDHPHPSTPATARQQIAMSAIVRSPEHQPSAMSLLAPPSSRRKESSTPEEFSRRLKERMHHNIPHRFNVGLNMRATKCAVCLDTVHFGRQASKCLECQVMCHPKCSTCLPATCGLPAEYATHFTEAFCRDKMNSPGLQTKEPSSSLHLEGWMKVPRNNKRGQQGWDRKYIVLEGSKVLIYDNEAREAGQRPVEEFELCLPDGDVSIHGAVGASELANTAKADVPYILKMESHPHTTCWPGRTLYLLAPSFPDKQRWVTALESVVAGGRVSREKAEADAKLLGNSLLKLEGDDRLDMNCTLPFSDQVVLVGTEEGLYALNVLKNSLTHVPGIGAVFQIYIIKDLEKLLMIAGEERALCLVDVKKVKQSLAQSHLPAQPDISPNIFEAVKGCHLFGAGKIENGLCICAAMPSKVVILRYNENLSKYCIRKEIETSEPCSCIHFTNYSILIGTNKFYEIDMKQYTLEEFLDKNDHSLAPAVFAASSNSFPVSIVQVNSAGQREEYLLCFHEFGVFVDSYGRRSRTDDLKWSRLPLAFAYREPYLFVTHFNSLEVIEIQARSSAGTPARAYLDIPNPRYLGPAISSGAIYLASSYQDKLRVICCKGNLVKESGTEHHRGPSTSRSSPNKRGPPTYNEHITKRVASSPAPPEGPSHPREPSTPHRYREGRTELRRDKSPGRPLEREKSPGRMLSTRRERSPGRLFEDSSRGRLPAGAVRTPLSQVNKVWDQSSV
UniProt Q15058: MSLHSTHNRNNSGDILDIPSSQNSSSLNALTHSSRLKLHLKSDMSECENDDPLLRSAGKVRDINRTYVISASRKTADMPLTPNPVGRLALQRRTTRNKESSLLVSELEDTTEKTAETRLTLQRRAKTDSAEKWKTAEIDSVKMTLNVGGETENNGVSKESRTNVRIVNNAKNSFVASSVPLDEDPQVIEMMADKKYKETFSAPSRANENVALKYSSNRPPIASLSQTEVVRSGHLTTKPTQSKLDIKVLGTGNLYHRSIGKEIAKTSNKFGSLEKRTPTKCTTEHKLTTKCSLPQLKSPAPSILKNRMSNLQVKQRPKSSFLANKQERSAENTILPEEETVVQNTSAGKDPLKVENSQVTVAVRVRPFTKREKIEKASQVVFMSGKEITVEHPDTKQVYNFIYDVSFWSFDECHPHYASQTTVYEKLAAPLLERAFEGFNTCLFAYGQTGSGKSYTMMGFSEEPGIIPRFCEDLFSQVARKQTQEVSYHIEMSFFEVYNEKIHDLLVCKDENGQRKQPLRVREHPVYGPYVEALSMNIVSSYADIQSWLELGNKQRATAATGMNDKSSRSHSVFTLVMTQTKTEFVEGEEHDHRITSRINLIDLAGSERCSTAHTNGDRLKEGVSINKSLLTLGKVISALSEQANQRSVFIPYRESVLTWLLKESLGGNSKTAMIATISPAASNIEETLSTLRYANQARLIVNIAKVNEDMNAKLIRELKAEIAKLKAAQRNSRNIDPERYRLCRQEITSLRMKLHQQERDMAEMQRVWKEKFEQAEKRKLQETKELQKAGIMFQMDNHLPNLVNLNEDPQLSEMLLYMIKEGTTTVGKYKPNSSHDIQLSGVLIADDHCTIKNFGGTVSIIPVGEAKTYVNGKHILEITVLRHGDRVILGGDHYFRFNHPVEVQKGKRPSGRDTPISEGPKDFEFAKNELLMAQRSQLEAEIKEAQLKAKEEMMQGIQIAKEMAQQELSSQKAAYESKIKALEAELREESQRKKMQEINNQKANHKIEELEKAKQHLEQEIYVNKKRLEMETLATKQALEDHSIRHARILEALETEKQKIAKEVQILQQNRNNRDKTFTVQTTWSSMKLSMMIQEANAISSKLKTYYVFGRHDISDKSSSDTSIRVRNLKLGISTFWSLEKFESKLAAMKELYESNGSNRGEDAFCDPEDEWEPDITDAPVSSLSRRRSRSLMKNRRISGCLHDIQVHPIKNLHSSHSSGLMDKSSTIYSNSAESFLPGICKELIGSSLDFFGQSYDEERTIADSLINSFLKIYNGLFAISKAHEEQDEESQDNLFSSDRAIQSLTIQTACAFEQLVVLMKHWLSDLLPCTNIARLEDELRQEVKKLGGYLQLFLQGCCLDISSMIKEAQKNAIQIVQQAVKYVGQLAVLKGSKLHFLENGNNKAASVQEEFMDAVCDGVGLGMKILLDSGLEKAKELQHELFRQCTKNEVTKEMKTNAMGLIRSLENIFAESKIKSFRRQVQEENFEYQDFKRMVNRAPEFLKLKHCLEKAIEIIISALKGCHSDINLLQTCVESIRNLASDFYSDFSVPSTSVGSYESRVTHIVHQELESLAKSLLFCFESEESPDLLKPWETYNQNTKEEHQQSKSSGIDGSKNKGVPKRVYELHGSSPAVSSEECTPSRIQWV
UniProt P53350: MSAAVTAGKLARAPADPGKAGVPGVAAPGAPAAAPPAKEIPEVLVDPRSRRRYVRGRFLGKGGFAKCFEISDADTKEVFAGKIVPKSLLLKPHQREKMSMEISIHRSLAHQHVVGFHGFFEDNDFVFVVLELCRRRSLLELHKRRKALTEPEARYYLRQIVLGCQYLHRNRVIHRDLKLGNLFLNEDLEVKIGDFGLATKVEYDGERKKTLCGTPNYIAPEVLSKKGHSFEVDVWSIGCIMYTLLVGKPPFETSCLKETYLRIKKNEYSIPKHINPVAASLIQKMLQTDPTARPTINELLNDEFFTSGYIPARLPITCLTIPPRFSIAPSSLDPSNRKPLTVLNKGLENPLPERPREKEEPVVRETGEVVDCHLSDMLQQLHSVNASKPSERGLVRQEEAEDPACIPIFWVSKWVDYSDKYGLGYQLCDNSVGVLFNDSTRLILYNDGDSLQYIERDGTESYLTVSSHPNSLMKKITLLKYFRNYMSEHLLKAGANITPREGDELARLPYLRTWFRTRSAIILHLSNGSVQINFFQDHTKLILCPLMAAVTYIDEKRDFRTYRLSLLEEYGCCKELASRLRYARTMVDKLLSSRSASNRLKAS

Holding throughout (test): affinity purification with mass spectrometry; GFP-tagged bait captured on GFP-Trap_MA magnetic beads from lysates of stably expressing HeLa cells synchronised in telophase (CIT-K::AcGFP also in S phase and metaphase); 20 mM Tris-HCl, 150 mM NaCl, 2 mM MgCl2, 1 mM EGTA, 0.1% NP-40, 4 h at 4 °C; hits absent from GFP-alone controls classed as specific
Assay [1] deals with PRC1 tagged with GFP (bait) (UniProt O43663).
In assay [2] the target is Citron kinase (CIT-K) tagged with AcGFP (UniProt O14578).
In assay [3] the target is KIF14 tagged with GFP (bait) (UniProt Q15058).

No constants are given. Whether binding was seen depends on the method and setting. Binding seen in cells or lysates may run through a third protein. Here binding means that the protein was enriched with, or labelled near, the bait; the list need not be complete.

Regarding “Polo-like kinase 1 (Plk1) (from UniProt P53350 1-603)”, the binding entry in assay [1] is given as “binds”.

As for “KIF14 (endogenous, prey) (from UniProt Q15058 1-1648)”, the binding entry in assay [2] is “binds”.

B1: microtubule depolymerizing kinesin KIF2C/MCAK (protein, UniProt Q99661 1-725)
chain: MAMDSSLQARLFPGLAIKIQRSNGLIHSANVRTVNLEKSCVSVEWAEGGATKGKEIDFDDVAAINPELLQLLPLHPKDNLPLQENVTIQKQKRRSVNSKIPAPKESLRSRSTRMSTVSELRITAQENDMEVELPAAANSRKQFSVPPAPTRPSCPAVAEIPLRMVSEEMEEQVHSIRGSSSANPVNSVRRKSCLVKEVEKMKNKREEKKAQNSEMRMKRAQEYDSSFPNWEFARMIKEFRATLECHPLTMTDPIEEHRICVCVRKRPLNKQELAKKEIDVISIPSKCLLLVHEPKLKVDLTKYLENQAFCFDFAFDETASNEVVYRFTARPLVQTIFEGGKATCFAYGQTGSGKTHTMGGDLSGKAQNASKGIYAMASRDVFLLKNQPCYRKLGLEVYVTFFEIYNGKLFDLLNKKAKLRVLEDGKQQVQVVGLQEHLVNSADDVIKMIDMGSACRTSGQTFANSNSSRSHACFQIILRAKGRMHGKFSLVDLAGNERGADTSSADRQTRMEGAEINKSLLALKECIRALGQNKAHTPFRESKLTQVLRDSFIGENSRTCMIATISPGISSCEYTLNTLRYADRVKELSPHSGPSGEQLIQMETEEMEACSNGALIPGNLSKEEEELSSQMSSFNEAMTQIRELEEKAMEELKEIIQQGPDWLELSEMTEQPDYDLETFVNKAESALAQQAKHFSALRDVIKALRLAMQLEEQASRQISSKKRPQ
B1: the binding result in assay [3] and in assay [2] was “binds” in each case.

B2: Anillin (endogenous, prey) (protein, UniProt Q9NQW6 1-1124)
chain: MDPFTEKLLERTRARRENLQRKMAERPTAAPRSMTHAKRARQPLSEASNQQPLSGGEEKSCTKPSPSKKRCSDNTEVEVSNLENKQPVESTSAKSCSPSPVSPQVQPQAADTISDSVAVPASLLGMRRGLNSRLEATAASSVKTRMQKLAEQRRRWDNDDMTDDIPESSLFSPMPSEEKAASPPRPLLSNASATPVGRRGRLANLAATICSWEDDVNHSFAKQNSVQEQPGTACLSKFSSASGASARINSSSVKQEATFCSQRDGDASLNKALSSSADDASLVNASISSSVKATSPVKSTTSITDAKSCEGQNPELLPKTPISPLKTGVSKPIVKSTLSQTVPSKGELSREICLQSQSKDKSTTPGGTGIKPFLERFGERCQEHSKESPARSTPHRTPIITPNTKAIQERLFKQDTSSSTTHLAQQLKQERQKELACLRGRFDKGNIWSAEKGGNSKSKQLETKQETHCQSTPLKKHQGVSKTQSLPVTEKVTENQIPAKNSSTEPKGFTECEMTKSSPLKITLFLEEDKSLKVTSDPKVEQKIEVIREIEMSVDDDDINSSKVINDLFSDVLEEGELDMEKSQEEMDQALAESSEEQEDALNISSMSLLAPLAQTVGVVSPESLVSTPRLELKDTSRSDESPKPGKFQRTRVPRAESGDSLGSEDRDLLYSIDAYRSQRFKETERPSIKQVIVRKEDVTSKLDEKNNAFPCQVNIKQKMQELNNEINMQQTVIYQASQALNCCVDEEHGKGSLEEAEAERLLLIATGKRTLLIDELNKLKNEGPQRKNKASPQSEFMPSKGSVTLSEIRLPLKADFVCSTVQKPDAANYYYLIILKAGAENMVATPLASTSNSLNGDALTFTTTFTLQDVSNDFEINIEVYSLVQKKDPSGLDKKKKTSKSKAITPKRLLTSITTKSNIHSSVMASPGGLSAVRTSNFALVGSYTLSLSSVGNTKFVLDKVPFLSSLEGHIYLKIKCQVNSSVEERGFLTIFEDVSGFGAWHRRWCVLSGNCISYWTYPDDEKRKNPIGRINLANCTSRQIEPANREFCARRNTFELITVRPQREDDRETLVSQCRDTLCVTKNWLSADTKEERDLWMQKLNQVLVDIRLWQPDACYKPIGKP
As to B2, the binding result in assay [2] is recorded as “binds”.
